# Laboratory results published in doi:10.1101/2025.05.19.654886.
# The chains behind the UniProt entries cited, without tags or fusion partners. Residues count along the entry.
# UniProt P56962, 1-224: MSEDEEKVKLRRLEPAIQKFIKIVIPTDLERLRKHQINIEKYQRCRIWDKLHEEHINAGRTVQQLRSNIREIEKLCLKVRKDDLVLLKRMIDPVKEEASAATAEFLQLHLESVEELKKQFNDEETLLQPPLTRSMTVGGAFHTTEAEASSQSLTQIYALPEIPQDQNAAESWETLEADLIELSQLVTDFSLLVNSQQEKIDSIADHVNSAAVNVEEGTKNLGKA
# UniProt O95721, whole entry: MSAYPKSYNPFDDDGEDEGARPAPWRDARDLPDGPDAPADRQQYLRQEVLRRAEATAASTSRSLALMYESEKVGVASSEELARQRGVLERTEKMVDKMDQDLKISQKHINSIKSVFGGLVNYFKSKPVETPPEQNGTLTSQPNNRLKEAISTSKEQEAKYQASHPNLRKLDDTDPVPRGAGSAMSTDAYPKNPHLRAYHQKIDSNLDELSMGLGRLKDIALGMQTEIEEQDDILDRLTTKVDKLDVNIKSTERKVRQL
# Results are given in words; binding and its absence hold for the method and conditions named. In cells and extracts the contact can be indirect. A result given as binding can be weak or reduced; the word gives no strength.
# What was measured:
# [1] = molecular target: GST-STX17 (amino acids 1-224) (UniProt P56962); experiment: co-IP
# [2] = molecular target: SNAP29 (purified, unmodified) (UniProt O95721); experiment: co-IP
substance,measurement,setting,value
"VAMP8 (purified, bought) (from UniProt O70404)",binding,[1],binds
same,binding,[2],binds
